These are yes or no findings as the source states them, for the method shown. In cells and extracts the contact can be indirect. A yes stands for co-enrichment or nearness to the bait. Other partners may have been found.
Columns and labels:
Assay in all cases: affinity purification with mass spectrometry
[1] = biological target: FLAG-tagged Bolinopsis mikado β-catenin (B. mikado)
[2] = biological target: FLAG-tagged Ephydatia fluviatilis β-catenin (E. fluviatilis)
[3] = biological target: FLAG-tagged Nematostella vectensis β-catenin (N. vectensis)
[4] = biological target: FLAG-tagged Xenopus laevis β-catenin (X. laevis) (UniProt P26233)

Amino acid sequences for entries named in this document (tags omitted).
UniProt P26233: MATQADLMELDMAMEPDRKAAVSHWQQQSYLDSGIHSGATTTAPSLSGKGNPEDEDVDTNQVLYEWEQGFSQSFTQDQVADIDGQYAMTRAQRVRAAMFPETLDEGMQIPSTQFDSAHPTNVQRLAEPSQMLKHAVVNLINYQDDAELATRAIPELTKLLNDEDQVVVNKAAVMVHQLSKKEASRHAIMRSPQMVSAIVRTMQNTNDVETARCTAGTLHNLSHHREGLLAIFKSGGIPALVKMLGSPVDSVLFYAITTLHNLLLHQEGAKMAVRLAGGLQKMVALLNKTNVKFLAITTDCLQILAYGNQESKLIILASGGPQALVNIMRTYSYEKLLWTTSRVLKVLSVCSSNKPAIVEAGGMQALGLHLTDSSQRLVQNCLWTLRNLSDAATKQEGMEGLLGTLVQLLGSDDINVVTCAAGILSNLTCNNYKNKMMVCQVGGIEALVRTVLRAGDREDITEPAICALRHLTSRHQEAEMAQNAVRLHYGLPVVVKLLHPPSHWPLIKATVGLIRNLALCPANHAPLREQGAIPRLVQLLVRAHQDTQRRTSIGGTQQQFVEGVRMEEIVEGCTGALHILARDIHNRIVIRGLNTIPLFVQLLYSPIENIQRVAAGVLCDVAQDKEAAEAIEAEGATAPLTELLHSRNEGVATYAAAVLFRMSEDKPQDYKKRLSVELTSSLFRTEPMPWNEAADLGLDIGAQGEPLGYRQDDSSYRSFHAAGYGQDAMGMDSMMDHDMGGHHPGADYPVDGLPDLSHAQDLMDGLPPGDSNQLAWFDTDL

Measured: binding

B1: MOCS3 (protein, UniProt Q58E95 1-451)
chain: MDETDSQITCADSSVDKLSHLKRNEVKSCPLPELHGADEMLPELNKSCLTNPDILRYSRQLVLPDLGVQGQLKLSKASVLVIGCGGLGCPVAQYLAASGIGRLGLLDYDVVEMSNLHRQVLHGENRLGMSKSVSVAKTLRKLNSAVVYLPYHISLNPENALQIIQQYDIIADCSDNVPTRYLVNDTCVLAGKPLVSASALRWEGQLTVYNYHQGPCYRCLFPKPPPSETVTNCADGGVLGIVPGIIGSLQALEVLKIASGMAPSYSGVLLMFDALEGRFRNIKIRGKKNDCAACSNPSETAILQDYEAFCGSSASDKCRMLRLLSRDERLSVEEYKRLLDDHVPHILMDVRPQPEVDICRLPHSIHIPLKGLEEKNEKWVSFLRTKIAELITAGNRTEKTVITICKLGNDSQIAVKILQDLFGKEDLFIAKDVQGGLMAWAENIDPMFPRY
binds: all assays above

B2: HAUS8 (protein, UniProt Q0IHJ3 1-367)
chain: MSEAGVAPIEDGSQNSSGGSSGDAALKKSKGGAKVVKSRYMQIGRSKVSKNSLANTTVCSGGKVPERGSGGTPTRRSLAPHKAKITAAVPLPALDGSIFTKEDLQSTLLDGHRIARPDLDLSVINDRTLQKITPRPVVTSEQKKPKRDTTPVNLVPEDMVEMIESQTLLLTYLTIKMQKNLFRLEEKAERNLLLVNDQKDQLQETIHMMKRDLTLLQREERLRDLIEKQDEVLTPVVTSKDPFKDNYTTFATALDSTRHQLAIKNIHITGNRHRYLEELQKHLAITKSLLEEIMPSHASENAESFDTIKDLENIVLKTDEELARSFRQILDLSFKVNKEISLQSQKAVEETCESALVRQWYFDGSLP
binds: [3] | [4]

From publication doi:10.1101/2024.07.01.600363
